For assay [1], the target named is Marburg virus nucleoprotein (NP) in the nucleocapsid of purified virions (Marburg virus) (UniProt P27588). Kind of assay: cryo-EM structure.
For assay [2], the target named is full-length Marburg virus nucleoprotein (MARV NP), recombinant (Marburg virus) (UniProt P27588). Put plainly: cryoEM images; both purified.

Amino acid sequences for entries named in this document (tags omitted).
UniProt P27588: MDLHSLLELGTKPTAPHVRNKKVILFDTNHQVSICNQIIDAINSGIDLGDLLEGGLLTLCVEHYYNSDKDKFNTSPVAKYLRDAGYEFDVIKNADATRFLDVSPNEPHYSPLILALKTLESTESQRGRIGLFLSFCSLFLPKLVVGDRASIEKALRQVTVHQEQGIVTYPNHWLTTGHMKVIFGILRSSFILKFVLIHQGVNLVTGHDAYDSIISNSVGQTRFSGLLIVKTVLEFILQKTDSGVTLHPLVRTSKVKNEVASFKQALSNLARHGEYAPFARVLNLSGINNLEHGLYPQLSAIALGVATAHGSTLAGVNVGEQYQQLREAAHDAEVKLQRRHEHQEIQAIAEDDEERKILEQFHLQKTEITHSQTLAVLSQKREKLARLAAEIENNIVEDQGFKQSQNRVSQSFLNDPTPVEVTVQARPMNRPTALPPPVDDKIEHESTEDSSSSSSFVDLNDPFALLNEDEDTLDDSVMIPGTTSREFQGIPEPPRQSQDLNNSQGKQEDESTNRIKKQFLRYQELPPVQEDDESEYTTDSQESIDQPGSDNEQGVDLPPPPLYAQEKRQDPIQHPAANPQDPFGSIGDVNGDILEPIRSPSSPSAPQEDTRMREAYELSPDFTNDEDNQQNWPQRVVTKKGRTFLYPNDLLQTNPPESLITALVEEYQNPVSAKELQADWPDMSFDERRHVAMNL

From paper PMC3217011 come the findings set out here.

Results are given in words; binding and its absence hold for the method and conditions named. Some entries that bind do so weakly or less than the wild type.

For the substance “Marburg virus nucleoprotein (NP) in the nucleocapsid of purified virions (from UniProt P27588 1-695)”, the binding result in assay [1] was “binds”. Regarding “full-length Marburg virus nucleoprotein (MARV NP), recombinant (from UniProt P27588 1-695)”, the binding entry in assay [2] was “binds”.
